This assay deals with GST-tagged gp78 cytosolic domain. Briefly: pull-down; purified GST-tagged protein immobilised on glutathione beads and incubated with recombinant or purified protein; immunoblotting; both purified. (In western blotting, separated proteins are transferred to a membrane and probed.)

These are yes or no findings as the source states them, for the method shown. Binding can be weak; no strength is given.

B1: recombinant USP13 (enzyme, UniProt Q92995 1-863)
chain: MQRRGALFGMPGGSGGRKMAAGDIGELLVPHMPTIRVPRSGDRVYKNECAFSYDSPNSEGGLYVCMNTFLAFGREHVERHFRKTGQSVYMHLKRHVREKVRGASGGALPKRRNSKIFLDLDTDDDLNSDDYEYEDEAKLVIFPDHYEIALPNIEELPALVTIACDAVLSSKSPYRKQDPDTWENELPVSKYANNLTQLDNGVRIPPSGWKCARCDLRENLWLNLTDGSVLCGKWFFDSSGGNGHALEHYRDMGYPLAVKLGTITPDGADVYSFQEEEPVLDPHLAKHLAHFGIDMLHMHGTENGLQDNDIKLRVSEWEVIQESGTKLKPMYGPGYTGLKNLGNSCYLSSVMQAIFSIPEFQRAYVGNLPRIFDYSPLDPTQDFNTQMTKLGHGLLSGQYSKPPVKSELIEQVMKEEHKPQQNGISPRMFKAFVSKSHPEFSSNRQQDAQEFFLHLVNLVERNRIGSENPSDVFRFLVEERIQCCQTRKVRYTERVDYLMQLPVAMEAATNKDELIAYELTRREAEANRRPLPELVRAKIPFSACLQAFSEPENVDDFWSSALQAKSAGVKTSRFASFPEYLVVQIKKFTFGLDWVPKKFDVSIDMPDLLDINHLRARGLQPGEEELPDISPPIVIPDDSKDRLMNQLIDPSDIDESSVMQLAEMGFPLEACRKAVYFTGNMGAEVAFNWIIVHMEEPDFAEPLTMPGYGGAASAGASVFGASGLDNQPPEEIVAIITSMGFQRNQAIQALRATNNNLERALDWIFSHPEFEEDSDFVIEMENNANANIISEAKPEGPRVKDGSGTYELFAFISHMGTSTMSGHYICHIKKEGRWVIYNDHKVCASERPPKDLGYMYFYRRIPS
As for B1, the binding result was “binds”.

Values taken from publication PMC3889402.
